Among the data in article PMC6019448 are binding values, retold here.

Results are given in words; binding and its absence hold for the method and conditions named. A result given as binding can be weak or reduced; the word gives no strength. For some assays here: Where a sequence is shown, tags or fusion partners need not be part of it. For some assays here: In cells and extracts the contact can be indirect.

In one test the target is T1, mouse RIG-I (mouse) (UniProt Q6Q899).
T1 sequence: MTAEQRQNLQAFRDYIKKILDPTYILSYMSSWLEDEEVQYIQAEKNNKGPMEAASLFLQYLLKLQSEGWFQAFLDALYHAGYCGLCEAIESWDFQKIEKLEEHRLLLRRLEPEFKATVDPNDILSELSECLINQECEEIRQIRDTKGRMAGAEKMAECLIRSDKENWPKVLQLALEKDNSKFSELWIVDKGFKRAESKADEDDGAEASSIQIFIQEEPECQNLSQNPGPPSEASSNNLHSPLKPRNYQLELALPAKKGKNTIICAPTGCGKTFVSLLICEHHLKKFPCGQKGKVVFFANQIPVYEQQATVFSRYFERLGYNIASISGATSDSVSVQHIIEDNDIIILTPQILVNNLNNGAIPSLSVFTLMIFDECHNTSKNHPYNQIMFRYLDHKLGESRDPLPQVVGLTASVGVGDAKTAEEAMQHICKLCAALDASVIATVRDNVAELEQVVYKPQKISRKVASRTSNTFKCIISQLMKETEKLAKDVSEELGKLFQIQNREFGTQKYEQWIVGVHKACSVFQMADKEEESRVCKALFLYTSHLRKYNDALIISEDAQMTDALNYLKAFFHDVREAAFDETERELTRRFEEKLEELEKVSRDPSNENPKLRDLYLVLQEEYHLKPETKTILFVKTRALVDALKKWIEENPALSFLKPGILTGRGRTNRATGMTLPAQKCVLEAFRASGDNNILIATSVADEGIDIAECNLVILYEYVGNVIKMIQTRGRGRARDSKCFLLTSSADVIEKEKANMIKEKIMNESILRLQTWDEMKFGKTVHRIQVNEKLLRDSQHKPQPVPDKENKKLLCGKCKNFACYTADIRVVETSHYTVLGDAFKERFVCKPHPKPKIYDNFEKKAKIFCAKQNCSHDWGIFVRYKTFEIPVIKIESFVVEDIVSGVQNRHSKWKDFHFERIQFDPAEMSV
The experiment in a line: co-IP; 293T cells transfected with equal amounts of Flag- and Myc-tagged plasmids, lysed 24 h after transfection; anti-Flag IP with protein A + G agarose overnight at 4°C, Western blot with c-Myc antibody.

In a further test the target is T2, duck RIG-I (duck) (UniProt D3TI84).
T2 sequence: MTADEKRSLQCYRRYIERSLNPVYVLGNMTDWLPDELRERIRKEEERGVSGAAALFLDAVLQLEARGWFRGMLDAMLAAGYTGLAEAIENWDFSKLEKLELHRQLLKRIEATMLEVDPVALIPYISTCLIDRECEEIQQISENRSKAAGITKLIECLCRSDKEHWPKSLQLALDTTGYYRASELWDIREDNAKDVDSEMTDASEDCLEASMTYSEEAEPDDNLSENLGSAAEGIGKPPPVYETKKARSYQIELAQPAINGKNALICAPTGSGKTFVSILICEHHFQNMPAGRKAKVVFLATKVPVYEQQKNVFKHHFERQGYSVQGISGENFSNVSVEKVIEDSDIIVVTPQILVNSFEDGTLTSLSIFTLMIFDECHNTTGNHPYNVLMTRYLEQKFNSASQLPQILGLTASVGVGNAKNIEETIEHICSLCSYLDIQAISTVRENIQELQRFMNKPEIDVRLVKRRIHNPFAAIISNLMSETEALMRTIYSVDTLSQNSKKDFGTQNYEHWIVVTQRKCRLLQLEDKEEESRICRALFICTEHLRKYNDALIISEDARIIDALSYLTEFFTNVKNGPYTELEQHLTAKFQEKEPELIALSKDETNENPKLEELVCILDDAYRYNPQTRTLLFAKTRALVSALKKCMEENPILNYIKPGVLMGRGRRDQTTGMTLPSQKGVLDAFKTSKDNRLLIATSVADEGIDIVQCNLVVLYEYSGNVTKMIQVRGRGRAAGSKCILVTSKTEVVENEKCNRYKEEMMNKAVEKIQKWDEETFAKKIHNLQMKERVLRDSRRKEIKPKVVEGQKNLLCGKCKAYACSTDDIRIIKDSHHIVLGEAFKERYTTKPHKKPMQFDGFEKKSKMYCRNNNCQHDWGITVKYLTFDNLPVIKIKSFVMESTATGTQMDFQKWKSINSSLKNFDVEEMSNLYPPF
The experiment in a line: co-IP.

Test [1] deals with T3, duck RIG-I, Gal4 DNA-binding domain fusion (bait) (duck) (UniProt D3TI84).
T3 sequence: T2 sequence
The experiment in a line: two-hybrid; full-length RIG-I as Gal4 DNA-binding domain bait (pGBKT7), OASL proteins as prey (pGADT7), S. cerevisiae AH109; selection on double-, triple- and quadruple-dropout medium.

As to “mouse Oasl2-3D* OAS-like domain (domain or fragment)”, in the test with mouse RIG-I (mouse), the binding result is “binds”. For the substance duck OASL-3D*, in the test with duck RIG-I (duck), the binding result is recorded as “binds”. As to “mouse Oasl2 OAS-like domain (domain or fragment)”, in the test with mouse RIG-I (mouse), the binding entry is recorded as “binds”. As for “duck OASL-3D* OAS-like domain (domain or fragment)”, the binding entry with duck RIG-I (duck) is on record as “binds”.

For duck OASL, two-hybrid prey, the binding entry in test [1] is given as “no binding”. For the substance “mouse Oasl2-3D* lacking one UBL (domain or fragment)”, the binding entry with mouse RIG-I (mouse) is “binds”. Turning to duck OASL, in the test with duck RIG-I (duck), the binding result is on record as “binds”. Take duck OASL-3D*, two-hybrid prey: the binding result in test [1] was “binds”.
